Laboratory results published in patent US20240140995A1.
Results are given in words; binding and its absence hold for the method and conditions named. Some entries that bind do so weakly or less than the wild type.

Chains of the proteins cited; added tags and fusions are not shown. Residues count along the entry.
UniProt Q03708: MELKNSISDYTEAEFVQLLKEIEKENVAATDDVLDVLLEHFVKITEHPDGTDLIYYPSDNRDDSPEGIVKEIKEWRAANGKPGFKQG
UniProt Q47112, residues 444-576: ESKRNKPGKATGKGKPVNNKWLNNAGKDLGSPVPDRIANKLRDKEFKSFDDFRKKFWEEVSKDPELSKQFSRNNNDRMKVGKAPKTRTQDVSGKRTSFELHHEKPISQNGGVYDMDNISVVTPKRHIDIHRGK

Experiments:
[1] = target: E. coli IM-7, singly biotinylated (E. coli) (UniProt Q03708); assay: SPR (Biacore T200), 37 C, single cycle kinetics; […]
[2] = target: E. coli ColE-7 (E. coli) (UniProt Q47112); assay: SPR Biacore T200, 37 C, single cycle kinetics

Row | Substance | binding [1] | binding [2]
1 | E. coli ColE-7 (from UniProt Q47112 444-576) | binds | –
2 | E. coli IM-7, singly biotinylated (from UniProt Q03708 1-87) | – | binds
